According to patent US20230003721A1, “MITOTHERAPEUTICS FOR THE TREATMENT OF BRAIN DISORDERS” (The University of Florida Research Foundation, Inc., priority 2019, published 2023):

System: primary forebrain neurons
Conditions: rescreen, 12.5 μM, 24 h, vs DMSO wells
Procedure: Primary forebrain cell culture and maintenance. Forebrains of P0 Mt or Mt/Ai14 pups without olfactory bulbs and meninges were collected and placed in ice cold Ca^2+ and Mg^2+ free HBSS supplemented with 2 μg/ml gentamicin, 25 mM D-glucose, 1 mM pyruvate and 20 mM HEPES. Brain tissue was digested with 0.6 mg/ml papain at 37° C. for 20 min. Forebrains were washed with plating media [Neurobasal (Gibco), 5% FBS, 4 mM GlutaMAX (Gibco), 2 μg/ml gentamicin]. The tissue was gently triturated, allowed to settle and the supernatant was filtered through a 40 μm mesh-sized cell strainer. Cells were centrifuged at 420×g for 4 min and resuspended in plating media. 15,000 cells per well were plated with 2×10^8 viral particles/ml onto black Greiner μClear (Cat #781946) or Ultra-Low Base Aurora with evaporation barrier (Cat #ABE201201B) 384-well plates (80 μl/well) pre-coated with poly-D-lysine for the primary screen and rescreen, respectively. Plating and media changes were performed using an automated Biomek FX^P liquid handling workstation. Four hr after plating, 75% of the plating media was replaced by feeding media [Neurobasal-A (Gibco), 4 mM GlutaMAX (Gibco), 2 μg/ml gentamicin, 2% B27 (Gibco)]. At DIV4, 50% of the media was exchanged with fresh feeding media supplemented with 16 μM 5-Fluoro-2′-deoxyuridine (FUdR) to prevent glial cell over-growth. […]

## COC(=O)C1=C(C)NC(C)=C(C(=O)OC)C1c1ccccc1[N+](=O)[O-] [NIFEDIPINE]
  Dendritic Mt CA: 2.85 robust Z-scores
  Neurite Area: 0.22 robust Z-scores
